Paper PMC3382582
For at least one entry, the source does not settle the construct or the ends of the probe. Where cells or extracts were used, other partners may take part.

Protein sequences, listed by entry. Tags and fused reporters are not part of them. Lines headed by an entry give the natural chain unless they say otherwise; changes in a name come on top.
UniProt O08580: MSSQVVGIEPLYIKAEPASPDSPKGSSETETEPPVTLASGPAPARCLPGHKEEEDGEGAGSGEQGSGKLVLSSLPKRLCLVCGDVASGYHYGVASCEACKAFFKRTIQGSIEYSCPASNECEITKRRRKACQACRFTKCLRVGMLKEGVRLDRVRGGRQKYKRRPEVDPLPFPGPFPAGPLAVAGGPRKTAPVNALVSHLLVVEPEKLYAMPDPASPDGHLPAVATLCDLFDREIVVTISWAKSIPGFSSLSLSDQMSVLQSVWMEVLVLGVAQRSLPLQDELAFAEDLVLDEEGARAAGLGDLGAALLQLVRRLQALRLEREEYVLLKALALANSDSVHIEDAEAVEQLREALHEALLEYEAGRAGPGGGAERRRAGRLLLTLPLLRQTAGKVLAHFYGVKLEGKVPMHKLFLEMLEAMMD

Target: ERRα (hypothalamic nuclear extract) (Mus musculus) (UniProt O08580)
Experiment: EMSA supershift
Settings: anti-ERRα antibody, complex I decreased, supershift band seen; EMSA: 10 mM Tris pH 7.5, 50 mM NaCl, 2.5 mM MgCl2, 0.5 mM DTT, 4% glycerol, 2 µg poly(dI:dC), 1 pmol probe, 20 µl, room temperature 15 min; 5% polyacrylamide gel; protein in an extract; label: 32P 5' end label (T4 PNK)

GCCCCTGACCTTCCCGG / CCGGGAAGGTCAGGGC [GS-ERRα (SCT promoter ERE-half site oligo)]
binding result: binds
